Measured values as given in publication PMC2784748.
Results are given in words; binding and its absence hold for the method and conditions named. Binding seen in cells or lysates may run through a third protein. Some entries that bind do so weakly or less than the wild type.

The chains behind the UniProt entries cited, without tags or fusion partners.
UniProt Q60749: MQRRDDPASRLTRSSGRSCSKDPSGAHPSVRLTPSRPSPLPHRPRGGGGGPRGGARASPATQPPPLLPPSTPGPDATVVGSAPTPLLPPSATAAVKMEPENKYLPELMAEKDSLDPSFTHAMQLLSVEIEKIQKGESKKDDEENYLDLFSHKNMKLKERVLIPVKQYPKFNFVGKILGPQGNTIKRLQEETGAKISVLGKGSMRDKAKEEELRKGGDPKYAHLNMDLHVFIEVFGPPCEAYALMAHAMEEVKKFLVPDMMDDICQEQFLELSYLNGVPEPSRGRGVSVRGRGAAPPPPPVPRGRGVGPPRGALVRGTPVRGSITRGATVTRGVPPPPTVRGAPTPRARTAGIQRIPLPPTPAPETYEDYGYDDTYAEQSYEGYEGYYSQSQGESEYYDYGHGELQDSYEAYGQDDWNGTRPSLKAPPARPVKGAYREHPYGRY

Target: Sam68 (endogenous in NIH3T3 cells) (mouse (endogenous in NIH3T3)) (UniProt Q60749)
Test: co-IP; LNCaP and NIH3T3 whole cell extracts side by side; IP with anti-Sam68 antisera or normal rabbit IgG, Western analysis for Sam68 and hnRNP L; in the presence of Benzonase nuclease

binding: binds
B1: hnRNP L (endogenous in NIH3T3 cells) (protein, UniProt Q8R081 1-586)
chain: MSRRLLPRAEKRRRRLEQRQQPDEQLRRAGAMVKMAAAGGGGGGGRYYGGGNEGGRAPKRLKTENAGDQHGGGGGGGSGAAGGGGGENYDDPHKTPASPVVHIRGLIDGVVEADLVEALQEFGPISYVVVMPKKRQALVEFEDVLGACNAVNYAADNQIYIAGHPAFVNYSTSQKISRPGDSDDSRSVNSVLLFTILNPIYSITTDVLYTICNPCGPVQRIVIFRKNGVQAMVEFDSVQSAQRAKASLNGADIYSGCCTLKIEYAKPTRLNVFKNDQDTWDYTNPNLSGQGDPGSNPNKRQRQPPLLGDHPAEYGGPHGGYHSHYHDEGYGPPPPHYEGRRMGPPVGGHRRGPSRYGPQYGHPPPPPPPPDYGPHADSPVLMVYGLDQSKMNCDRVFNVFCLYGNVEKVKFMKSKPGAAMVEMADGYAVDRAITHLNNNFMFGQKMNVCVSKQPAIMPGQSYGLEDGSCSYKDFSESRNNRFSTPEQAAKNRIQHPSNVLHFFNAPLEVTEENFFEICDELGVKRPTSVKVFSGKSERSSSGLLEWDSKSDALETLGFLNHYQMKNPNGPYPYTLKLCFSTAQHAS
